No constants are given. Whether binding was seen depends on the method and setting. Some binding calls cover weakened binding; strength is not graded here.
The binders below were run against granulocyte-colony stimulating factor receptor (G-CSFR), purified (UniProt Q99062) (assay: specific binding to G-CSFR; column 'Specific Binding?').

Chains of the proteins cited; added tags and fusions are not shown. Residues count along the entry.
UniProt Q99062, residues 25-627: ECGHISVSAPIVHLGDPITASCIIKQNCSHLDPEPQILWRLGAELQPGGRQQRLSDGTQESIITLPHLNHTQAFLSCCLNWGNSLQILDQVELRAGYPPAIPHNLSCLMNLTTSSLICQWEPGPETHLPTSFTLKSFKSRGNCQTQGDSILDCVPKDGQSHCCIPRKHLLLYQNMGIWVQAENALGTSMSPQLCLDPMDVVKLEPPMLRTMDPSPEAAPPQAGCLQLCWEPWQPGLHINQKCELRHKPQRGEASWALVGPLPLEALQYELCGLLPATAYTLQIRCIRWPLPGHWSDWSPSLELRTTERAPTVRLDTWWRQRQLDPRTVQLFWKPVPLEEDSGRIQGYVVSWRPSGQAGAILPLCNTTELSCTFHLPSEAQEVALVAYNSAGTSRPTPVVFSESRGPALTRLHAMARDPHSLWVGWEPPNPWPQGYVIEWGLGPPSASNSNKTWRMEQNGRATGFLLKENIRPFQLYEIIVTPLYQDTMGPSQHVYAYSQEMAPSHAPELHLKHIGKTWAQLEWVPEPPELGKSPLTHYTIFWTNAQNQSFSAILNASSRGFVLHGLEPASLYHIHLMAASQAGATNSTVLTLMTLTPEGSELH

Question: How did the binding turn out when CSFVQLNSIC was run?
Answer: binds

Question: With CVPWMFYDLC as the binder, how does the binding read?
Answer: binds

Question: For CDPWMFYDLC, which binding is on record?
Answer: binds

Question: Which binding does the source give for CPDWYQSYMC here?
Answer: binds

Question: Which binding does the source give for CPHWTSYYMC here?
Answer: binds

Question: For CACMLRVVHC, which binding is on record?
Answer: binds

Question: CAGEVMHMCC was tested. Which binding did it give?
Answer: binds

Question: Which binding does the source give for SNESGWVWLP here?
Answer: binds

Question: For EQSNSGWVWV, which binding is on record?
Answer: binds

Question: With SRTESGWVWT as the binder, how does the binding read?
Answer: binds

Question: With QRANSGWVWV as the binder, how does the binding read?
Answer: binds

Question: With DYDNSGWVWH as the binder, how does the binding read?
Answer: binds

Question: How did the binding turn out when ETWGERDWFC was run?
Answer: binds

Question: Which binding does the source give for YETAERSYFC here?
Answer: binds

Question: For ADNAERGWFC, which binding is on record?
Answer: binds

Question: How did the binding turn out when STSERAWFCG was run?
Answer: binds

Question: Which binding does the source give for ASWSERGWFC here?
Answer: binds

Question: For ELSSEREWFC, which binding is on record?
Answer: binds

Question: CNREIEAMCC was tested. Which binding did it give?
Answer: binds

Question: Which binding does the source give for DMQGERGWFC here?
Answer: binds

Question: For DMVYAYPPWS, which binding is on record?
Answer: binds

Question: For DEMVYTVPYW, which binding is on record?
Answer: binds

Question: For HTTNEQFFMC, which binding is on record?
Answer: binds

Question: How did the binding turn out when DTWLELESRY was run?
Answer: binds

Question: How did the binding turn out when DWQKTIPAYW was run?
Answer: binds

Question: CADEVMHFCC was tested. Which binding did it give?
Answer: binds

Question: For CDVWQLFDRC, which binding is on record?
Answer: binds

The binders below were run against granulocyte-colony stimulating factor receptor (G-CSFR), purified (UniProt Q99062) (assay: competition with 125I-G-CSF on immobilised G-CSFR; column 'Competitive Binding?').

Question: Which binding does the source give for CSFVQLNSIC here?
Answer: binds

Question: How did the binding turn out when CPDWYQSYMC was run?
Answer: binds

Question: Which binding does the source give for CPHWTSYYMC here?
Answer: binds

Question: CACMLRVVHC was tested. Which binding did it give?
Answer: binds

Question: How did the binding turn out when CAGEVMHMCC was run?
Answer: binds

Question: ETWGERDWFC was tested. Which binding did it give?
Answer: binds

Question: YETAERSYFC was tested. Which binding did it give?
Answer: binds

Question: ADNAERGWFC was tested. Which binding did it give?
Answer: binds

Question: For STSERAWFCG, which binding is on record?
Answer: binds

Question: With ASWSERGWFC as the binder, how does the binding read?
Answer: binds

Question: How did the binding turn out when ELSSEREWFC was run?
Answer: binds

Question: How did the binding turn out when CNREIEAMCC was run?
Answer: binds

Question: With DMQGERGWFC as the binder, how does the binding read?
Answer: binds

Question: DEMVYTVPYW was tested. Which binding did it give?
Answer: binds

Question: HTTNEQFFMC was tested. Which binding did it give?
Answer: binds

Question: How did the binding turn out when DWQKTIPAYW was run?
Answer: binds

Question: How did the binding turn out when CADEVMHFCC was run?
Answer: binds

Question: With CDVWQLFDRC as the binder, how does the binding read?
Answer: binds
